{"source": "PubChem BioAssay AID686938 | Drosophila RNAi Screening Center, 2013", "screen": "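Knock-downs reducing store-operated calcium influx in Drosophila cells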 (primary screen)", "cells": "Drosophila S2R+ cells", "knock-down reagent": "long dsRNA against Drosophila genes, about 0.25 µg dsRNA per well, roughly 10,000 cells", "timing": "5 days of knock-down before the calcium assay", "conditions": "thapsigargin (SERCA pump blocker) to empty calcium stores; entry signal taken 4 min after adding it", "measurement": "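Per-well fluo-4 fluorescence in two replicates, unnormalised, measured in resting cells and 4 min after store depletion by the SERCA blocker thapsigargin; ratio of the two present in few wells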", "direction": "calcium entry signal: higher = stronger calcium signal after store depletion; resting calcium signal: higher = higher resting calcium signal", "units": "calcium entry signal in fluorescence units; resting calcium signal in fluorescence units", "hit rule": "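Hit if the duplicate-averaged plate z-score for entry over resting signal is under −3; wells with weak total dye signal (Fmax z < −2) or more than 5 off-targets removed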", "meaning of the calls": "active = strongly reduced calcium entry; inactive = no strong reduction", "note": "In all, the deposit lists about 23,000 reagents; shown is a random part of those that have a named target and a result. In the full data, 75 (0.33%) got an active call. 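Raw plate signals without normalisation; calls rest on plate z-scores that were not deposited; ratio present for only 364 wells.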 The numbers tell different reagents against one gene apart. Not given: the dose of the treatment."}
{"gene": "Sclp", "dsRNA no.": 1, "calcium entry signal, replicate 1": 4.05e7, "calcium entry signal, replicate 2": 4.45e7, "resting calcium signal, replicate 1": 1.82e7, "resting calcium signal, replicate 2": 2.08e7, "activity call": "inactive"}
{"gene": "ppk6 (pickpocket 6)", "dsRNA no.": 1, "calcium entry signal, replicate 1": 5.88e7, "calcium entry signal, replicate 2": 6.19e7, "resting calcium signal, replicate 1": 2.44e7, "resting calcium signal, replicate 2": 3.09e7, "activity call": "inactive"}
{"gene": "sni (sniffer)", "dsRNA no.": 1, "calcium entry signal, replicate 1": 2.14e7, "calcium entry signal, replicate 2": 2.56e7, "resting calcium signal, replicate 1": 1.16e7, "resting calcium signal, replicate 2": 1.26e7, "activity call": "inactive"}
{"gene": "eEFSec", "dsRNA no.": 1, "calcium entry signal, replicate 1": 4.71e7, "calcium entry signal, replicate 2": 5.11e7, "resting calcium signal, replicate 1": 2.38e7, "resting calcium signal, replicate 2": 2.20e7, "activity call": "inactive"}
{"gene": "CG10164", "dsRNA no.": 1, "calcium entry signal, replicate 1": 3.58e7, "calcium entry signal, replicate 2": 2.35e7, "resting calcium signal, replicate 1": 1.73e7, "resting calcium signal, replicate 2": 1.18e7, "activity call": "inactive"}
{"gene": "CG10907", "dsRNA no.": 1, "calcium entry signal, replicate 1": 2.46e7, "calcium entry signal, replicate 2": 3.03e7, "resting calcium signal, replicate 1": 1.28e7, "resting calcium signal, replicate 2": 1.44e7, "activity call": "inactive"}
{"gene": "CG1299", "dsRNA no.": 1, "calcium entry signal, replicate 1": 3.98e7, "calcium entry signal, replicate 2": 4.01e7, "resting calcium signal, replicate 1": 2.06e7, "resting calcium signal, replicate 2": 1.81e7, "activity call": "inactive"}
{"gene": "CG5726", "dsRNA no.": 1, "calcium entry signal, replicate 1": 3.73e7, "calcium entry signal, replicate 2": 3.65e7, "resting calcium signal, replicate 1": 1.78e7, "resting calcium signal, replicate 2": 1.91e7, "activity call": "inactive"}
{"gene": "CG42729", "dsRNA no.": 1, "calcium entry signal, replicate 1": 4.87e7, "calcium entry signal, replicate 2": 4.93e7, "resting calcium signal, replicate 1": 2.02e7, "resting calcium signal, replicate 2": 2.04e7, "activity call": "inactive"}
{"gene": "Dpp10 (Dipeptidyl peptidase 10)", "dsRNA no.": 1, "calcium entry signal, replicate 1": 3.94e7, "calcium entry signal, replicate 2": 4.61e7, "resting calcium signal, replicate 1": 2.03e7, "resting calcium signal, replicate 2": 1.99e7, "activity call": "inactive"}
{"gene": "Dpp10 (Dipeptidyl peptidase 10)", "dsRNA no.": 2, "calcium entry signal, replicate 1": 2.80e7, "calcium entry signal, replicate 2": 2.90e7, "resting calcium signal, replicate 1": 1.39e7, "resting calcium signal, replicate 2": 1.39e7, "activity call": "inactive"}
{"gene": "CG34417", "dsRNA no.": 1, "calcium entry signal, replicate 1": 3.42e7, "calcium entry signal, replicate 2": 3.52e7, "resting calcium signal, replicate 1": 1.71e7, "resting calcium signal, replicate 2": 1.65e7, "activity call": "inactive"}
{"gene": "CG34417", "dsRNA no.": 2, "calcium entry signal, replicate 1": 2.51e7, "calcium entry signal, replicate 2": 4.60e7, "resting calcium signal, replicate 1": 1.27e7, "resting calcium signal, replicate 2": 2.23e7, "activity call": "inactive"}
{"gene": "CG34417", "dsRNA no.": 3, "calcium entry signal, replicate 1": 3.38e7, "calcium entry signal, replicate 2": 3.53e7, "resting calcium signal, replicate 1": 1.72e7, "resting calcium signal, replicate 2": 1.61e7, "activity call": "inactive"}
{"gene": "Nak (Numb-associated kinase)", "dsRNA no.": 1, "calcium entry signal, replicate 1": 4.68e7, "resting calcium signal, replicate 1": 2.18e7, "activity call": "inactive"}
{"gene": "CG10222", "dsRNA no.": 1, "calcium entry signal, replicate 1": 3.61e7, "calcium entry signal, replicate 2": 3.60e7, "resting calcium signal, replicate 1": 1.86e7, "resting calcium signal, replicate 2": 1.60e7, "activity call": "inactive"}
{"gene": "CG33109", "dsRNA no.": 1, "calcium entry signal, replicate 1": 2.22e7, "calcium entry signal, replicate 2": 4.13e7, "resting calcium signal, replicate 1": 1.11e7, "resting calcium signal, replicate 2": 4.65e7, "activity call": "inactive"}
{"gene": "CG12828", "dsRNA no.": 1, "calcium entry signal, replicate 1": 3.16e7, "calcium entry signal, replicate 2": 4.36e7, "resting calcium signal, replicate 1": 1.58e7, "resting calcium signal, replicate 2": 1.91e7, "activity call": "inactive"}
{"gene": "Sema2b (Semaphorin 2b)", "dsRNA no.": 1, "calcium entry signal, replicate 1": 2.52e7, "calcium entry signal, replicate 2": 3.22e7, "resting calcium signal, replicate 1": 1.19e7, "resting calcium signal, replicate 2": 1.57e7, "activity call": "inactive"}
{"gene": "Sema2b (Semaphorin 2b)", "dsRNA no.": 2, "calcium entry signal, replicate 1": 2.26e7, "calcium entry signal, replicate 2": 3.07e7, "resting calcium signal, replicate 1": 1.10e7, "resting calcium signal, replicate 2": 1.52e7, "activity call": "inactive"}
{"gene": "Sema2b (Semaphorin 2b)", "dsRNA no.": 3, "calcium entry signal, replicate 1": 5.20e7, "calcium entry signal, replicate 2": 6.33e7, "resting calcium signal, replicate 1": 2.21e7, "resting calcium signal, replicate 2": 2.83e7, "activity call": "inactive"}
